Source: patent US11701363B2, “Methods for treating viral disorders” (TRUSTEES OF BOSTON UNIVERSITY, priority 2009, dated 2023)
At least one compound was matched to its structure with a doubt left.

What was measured:
EBV TK = experiment: TK mRNA level by reverse transcription and real-time PCR in P3HR1 cells; format: cell-based, Epstein-Barr virus
Procedure: To measure the relative level of TK mRNA in various total RNA preparations, reverse transcription and quantitative PCR using real time PCR technology was used. Five micrograms of total RNA was reverse-transcribed using random hexamer primers and Superscript III cDNA synthesis kit (Invitrogen). The cDNA was diluted to a final volume of 60 μl with sterile water, 8 μl of which was then used in each real time PCR reaction in an ABI 7500 […] using SYBR-Green technology. Primers used for the amplification of TK were EBV-TK1-F: 5′-[…]-3′; EBV-TK1-R: 5′-[…]-3′. The ß-actin mRNA level in those samples were determined similarly using ß-actin-specific primers Actin/hu-F: 5′-[…]-3′; Actin/hu-R: 5′-[…]-3′. The relative level of TK expression in a sample was calculated following normalization of ß-actin expression level.

HDAC class 1 and 2 = conditions: cited from earlier work

Row | SMILES | TK expression (TK mRNA level) (EBV TK) | HDAC inhibition and specificity (HDAC class 1 and 2) | IC 50 (HDAC class 1 and 2)
1 | Cc1[nH]c2ccccc2c1CCNCc1ccc(/C=C/C(=O)NO)cc1 [LHB589, panobinostat] | quite high compared to optimum concentration of NaB (2.5 mM) |  | 
2 | CCCCCCCC(=O)SCC/C=C/[C@@H]1CC(=O)NCc2nc(cs2)C2=N[C@@](C)(CS2)C(=O)N[C@@H](C(C)C)C(=O)O1 [largazole] |  | potent HDAC inhibitor with specificity towards HDAC class 1 and 2 only | very low
